Test results taken from patent US20220259318A1.

Target: cynomolgus GPRC5D (cynomolgus)
Assay: cell ELISA, CHO cells stably expressing cynomolgus GPRC5D

Row | Binder | binding
1 | 10B10 IgG (antibody, V domains shown) VH: EVQLVESGGGLVQPGRSMKLSCAASGFTFTNFYMAWVRQAPTKALEWVASINTGGGYTYYRDSVKGRFTVSRDNTRSTLYLQMDSLRSEETATYYCARHLTYYGRYYYFDYWGQGVMVTVSS VL: DIQLTQSPHSLSASLGETVSIECLASEGISNYLAWFHQKPGKSPQLLIYYASSLQDGVPSRFSGSGSGTQYSLKISNMQPEDEGVYYCQQGYKYPLTFGSGTKLEIK | binds
2 | 07A04 IgG (antibody, V domains shown) VH: QVTLKESGPGILQPSHTLSLTCSFSGFSLSTYGMGVNWIRQPSGKGLEWLASIWWNGNTYNNPSLKSRLTVSKDTSNNQAFLKVTSVDTADTATYYCVHTRGIIRGRGLFFDYWGQGVMVTVSS VL: DVQMTQSPYNLAASPGESVSINCKASKSISKYLAWYQQKPGKANKLLIYDGSTLQSGIPSRFSGSGSGTDFTLTIRSLEPEDFGLYYCQQHNEYPLTFGSGTKLEIKR | binds
3 | 5E11-IgG (antibody, V domains shown) VH: ELQLEQSGGGLVQPGGSLTLSCAASGFTFSKYAMAWVRQAPTKGLEWVASISTGGVNTYYRDSVKARFTISRDNAKNTQYLQMDSLRSEDTATYYCATHTGDYFDYWGQGVMVTVSS VL: DIVLTQSPALAVSPGQRATISCRASQSVSISGINLMNWYQQKPGQQPKLLIYHASILASGIPTRFSGSGSGTDFTLTIDPVQADDIATYYCQQTRESPLTFGSGTNLEIK | binds
4 | 5F11-IgG (antibody, V domains shown) VH: EVQLVESGGGLVQPGRSLKLSCAASGFSFSNYGMAWVRQAATKGLEWVASISTGGGNTYYRDSVKGRFIVSRDNAKNTQYLQMDSLRSEDTATYYCTRHDRGGLYWGQGVMVTVSS VL: DIVMTQAPLSVSVTPGESASISCRSSKSLLHSNGITYVYWYFQKPGKSPQVLIYRMSNLASGVPDRFSGSGSETDFTLKISRVEAEDVGIYHCGQLLENPYTFGAGTELELK | binds

Results are given in words; binding and its absence hold for the method and conditions named. A result given as binding can be weak or reduced; the word gives no strength.
